Results on one substance are retold here after publication PMC10548170.

No constants are given. Whether binding was seen depends on the method and setting. In cells and extracts the contact can be indirect.

The target in the experiment is T1, SFB-MARCH5 WT (UniProt Q9NX47).
T1 sequence: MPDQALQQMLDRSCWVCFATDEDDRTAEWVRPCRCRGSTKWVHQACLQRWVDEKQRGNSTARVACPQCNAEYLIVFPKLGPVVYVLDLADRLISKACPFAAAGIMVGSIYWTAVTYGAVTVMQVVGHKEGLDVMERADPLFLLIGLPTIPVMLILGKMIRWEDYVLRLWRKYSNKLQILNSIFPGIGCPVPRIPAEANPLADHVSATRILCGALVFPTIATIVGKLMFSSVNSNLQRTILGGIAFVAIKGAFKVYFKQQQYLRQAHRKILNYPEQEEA
Nature of the experiment: co-IP; HEK293T (MARCH5 KO by the text) cotransfected with Myc-NLRP3 WT or deletion mutants and SFB-MARCH5 WT; LPS 200 ng/ml 4 h and nigericin 15 uM 60 min; lysates precipitated with streptavidin beads, immunoblot. On the technique in general: Immunoblotting shows a protein as a band on a membrane.

Regarding Myc-NLRP3 ΔNACHT (domain or fragment), the binding result is on record as “no binding”.
